Reference: patent US20170369545A1
Results are given in words; binding and its absence hold for the method and conditions named. Some results given as binding are weak or reduced against the parent protein; the word gives no strength. Tags and fused reporters may be left off the sequences shown.

Experiments:
[1] = biological target: recombinant MET-IgG1 chimera (UniProt P08581); test: cross titration ALPHAScreen, K1K1 0-300 nM against MET-Fc 0-10 nM, streptavidin donor beads and protein A acceptor beads
[2] = biological target: recombinant MET-IgG1 chimera (UniProt P08581); test: ALPHAScreen cross-titration: K1K1 0-300 nM against recombinant MET-Fc 0-10 nM, streptavidin coated donor beads and protein A-conjugated acceptor beads

B1: HGF/SF-K1K1 (C-terminally tagged K1K1 protein, 6xHis tag) (designed binder)
chain: MAIRNCIIGKGRSYKGTVSITKSGIKCQPWSSMIPHEHSFLPSSYRGKDLQENYCRNPRGEEGGPWCFTSNPEVRYEVCDIPQCSEVECIIGKGRSYKGTVSITKSGIKCQPWSSMIPHEHSFLPSSYRGKDLQENYCRNPRGEEGGPWCFTSNPEVRYEVCDIPQCSEVEHHHHHH
B1 was tested, and the binding [1] was “binds” and the binding [2] was “binds”.
